One substance from publication PMC5853512, “Arabidopsis MKK10-MPK6 mediates red-light-regulated opening of seedling cotyledons through phosphorylation of PIF3” (Journal of Experimental Botany, 2017) can be followed below.

Chains of the proteins cited; added tags and fusions are not shown.
UniProt Q39026: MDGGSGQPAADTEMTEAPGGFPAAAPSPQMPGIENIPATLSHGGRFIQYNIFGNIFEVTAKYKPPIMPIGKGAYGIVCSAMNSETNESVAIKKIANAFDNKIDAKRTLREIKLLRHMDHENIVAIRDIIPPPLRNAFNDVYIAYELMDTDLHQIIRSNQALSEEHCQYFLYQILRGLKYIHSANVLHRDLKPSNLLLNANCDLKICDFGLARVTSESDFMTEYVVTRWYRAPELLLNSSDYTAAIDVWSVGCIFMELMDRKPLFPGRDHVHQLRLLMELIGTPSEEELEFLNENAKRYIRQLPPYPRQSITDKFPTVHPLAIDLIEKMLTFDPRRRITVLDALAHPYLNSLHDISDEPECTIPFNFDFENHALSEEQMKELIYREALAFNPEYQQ

No constants are given. Whether binding was seen depends on the method and setting. In cells and extracts the contact can be indirect. Some entries that bind do so weakly or less than the wild type. Sequences can lack the tags named with a protein.

The assay has as its target T1, MYC-PIF3 (Arabidopsis thaliana) (UniProt O80536).
T1 sequence: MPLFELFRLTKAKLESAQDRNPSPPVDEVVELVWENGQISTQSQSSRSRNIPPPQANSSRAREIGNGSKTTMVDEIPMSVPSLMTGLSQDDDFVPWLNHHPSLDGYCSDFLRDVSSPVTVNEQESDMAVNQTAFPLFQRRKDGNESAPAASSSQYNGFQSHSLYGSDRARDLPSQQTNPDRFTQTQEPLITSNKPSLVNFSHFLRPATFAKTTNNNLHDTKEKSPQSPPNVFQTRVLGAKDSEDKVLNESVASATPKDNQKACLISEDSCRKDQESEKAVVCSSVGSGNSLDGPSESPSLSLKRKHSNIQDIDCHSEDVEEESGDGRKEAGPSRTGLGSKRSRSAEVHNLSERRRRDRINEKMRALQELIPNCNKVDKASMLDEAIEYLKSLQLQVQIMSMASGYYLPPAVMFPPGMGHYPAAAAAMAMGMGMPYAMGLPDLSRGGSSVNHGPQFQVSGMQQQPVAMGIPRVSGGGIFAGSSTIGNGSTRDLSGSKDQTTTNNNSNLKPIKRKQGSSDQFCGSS
Kind of assay: co-IP; extracts (kinase buffer with 40 μM MG132) of dark-grown PIF3 OE seedlings exposed to 30 μmol m^-2 s^-1 R light or 8 μmol m^-2 s^-1 B light for 0, 30 and 60 s; anti-MYC beads 3.5 h at 4 °C in the dark; immunoblot with anti-MPK6 and anti-MYC.

Take “MPK6 (from UniProt Q39026 1-395) (enzyme)”: the binding result was “binds”.
